{
  "source": "the supplement of paper PMC8166895",
  "note": "Where a name gives a salt, the structure may show the parent alone. The list shows a part of the results. Most values lie at the level of the controls, where differences are scatter.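 Melting temperature was read by differential scanning fluorimetry in a single-replicate pilot screen of a library of approved drugs and clinical or known-target compounds. Compounds raising the melting point by at least 2 °C were the top stabilizing hits, and negative shifts mean destabilization.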 Where a SMILES comes first, the peptide text is derived from it. [ ]: non-standard residue; d: D form.",
  "data": [
    {"system": "SARS-CoV-2 main protease (Mpro, nsp5)", "assay": "thermal shift ΔTm of Mpro relative to plate average Tm; higher = stronger thermal stabilization of Mpro (binding)", "settings": "10 µM; protein concentration 1 µM", "units": {"thermal shift ΔTm of Mpro": "°C"}, "values": [
      {"compound": "COc1ccccc1-c1cc(Nc2cccc(CS(N)(=O)=O)c2)ncn1", "thermal shift ΔTm of Mpro": -0.179},
      {"compound": "O=C1NCCSc2c1sc1ccc(O)cc21", "thermal shift ΔTm of Mpro": 0.0777},
      {"compound": "NS(=O)(=O)c1cccc2c1c([N+](=O)[O-])cc1nc(O)c(O)nc12", "note": "[NBQX disodium salt]", "thermal shift ΔTm of Mpro": -0.0718},
      {"compound": "Cc1cc(N2CCCCC2)nc2ccccc12", "thermal shift ΔTm of Mpro": 0.319},
      {"compound": "CCCCC(CC)CN1CN(CC(CC)CCCC)CC(C)(N)C1", "note": "(stereo not given) [Hexetidine]", "thermal shift ΔTm of Mpro": 0.175},
      {"compound": "CCCC[S+]([O-])c1sc2nc(-c3cccs3)cc(-c3ccccc3)c2c1N", "note": "(stereo not given)", "thermal shift ΔTm of Mpro": -1.19},
      {"compound": "c1ccc(CNc2ccccc2)cc1", "note": "[N-Phenylbenzylamine]", "thermal shift ΔTm of Mpro": -0.00202},
      {"compound": "Nc1ccccc1NC(=O)c1ccc(CNC(=O)OCc2cccnc2)cc1", "note": "[Entinostat (MS-275)]", "thermal shift ΔTm of Mpro": 0.0523},
      {"compound": "CCCCOc1c(C(=O)c2c(F)cc(C)cc2F)c[nH]c2nncc1-2", "thermal shift ΔTm of Mpro": 0.0383},
      {"compound": "CCC(=O)N1CCOc2c(cc(-c3ccc(OC)c(OC)c3)cc2OC[C@H]2CCCN(C)C2)C1", "note": "[I-CBP112 hydrochloride]", "thermal shift ΔTm of Mpro": 0.322},
      {"compound": "COc1ccc(Cc2cnc(N)nc2N)cc1OC", "note": "[Diaveridine]", "thermal shift ΔTm of Mpro": -0.195},
      {"compound": "CN(C)C(=O)COC(=O)Cc1ccc(OC(=O)c2ccc(NC(=N)N)cc2)cc1", "note": "[Camostat Mesilate]", "thermal shift ΔTm of Mpro": -0.103},
      {"compound": "CC(C)C[C@@H]1NC(=O)[C@@H](C(C)C)NC(=O)[C@@H]2CCCN2C(=O)[C@@H](CC(=O)O)NC(=O)[C@@H](Cc2c[nH]c3ccccc23)NC1=O", "note": "(cyclo(L[dW][dD]P[dV]))", "thermal shift ΔTm of Mpro": -0.158},
      {"compound": "CCC1(C)CC(=O)NC(=O)C1", "note": "[Bemegride]", "thermal shift ΔTm of Mpro": 0.0705},
      {"compound": "N=C(N)NC(=O)c1nc(Cl)c(N)nc1N", "note": "[Amiloride HCl]", "thermal shift ΔTm of Mpro": 0.0492},
      {"compound": "N=C(N)NC(=O)c1nc(Cl)c(N)nc1N", "note": "[Amiloride hydrochloride dihydrate]", "thermal shift ΔTm of Mpro": -0.0184},
      {"compound": "CCCCOC(=O)c1ccc(N)cc1", "note": "[Butyl 4-aminobenzoate]", "thermal shift ΔTm of Mpro": 0.114},
      {"compound": "O=C(Nc1cc(C(F)(F)F)ccc1O)Nc1cc(C(F)(F)F)ccc1O", "thermal shift ΔTm of Mpro": 0.522},
      {"compound": "Cc1ccccc1-n1c(Cn2ncc3c(N)ncnc32)nc2cccc(C)c2c1=O", "thermal shift ΔTm of Mpro": -0.133},
      {"compound": "CCN(Cc1ccc(Cl)nc1)/C(=C/[N+](=O)[O-])NC", "note": "[Nitenpyram]", "thermal shift ΔTm of Mpro": -0.0635},
      {"compound": "O=C1N[C@@H](Cc2c[nH]c3ccccc23)C(=O)N2CCC[C@@H]12", "note": "[Brevianamide F]", "thermal shift ΔTm of Mpro": "7.29e-05"},
      {"compound": "N[C@@H]1CCCCN(c2c(F)cc3c(=O)c(C(=O)O)cn(C4CC4)c3c2Cl)C1", "note": "[Besifloxacin HCl]", "thermal shift ΔTm of Mpro": -0.00551},
      {"compound": "OC1C[C@H]2CC[C@@H](C1)N2", "note": "(stereo not given in full) [Nortropine]", "thermal shift ΔTm of Mpro": 0.104},
      {"compound": "CCCCCCCCC/C(=C\\C1=C(C)C(=O)C(OC)=C(OC)C1=O)C(=O)O", "thermal shift ΔTm of Mpro": -0.0415},
      {"compound": "C/C(O)=C(\\C#N)C(=O)Nc1cc(Br)ccc1Br", "thermal shift ΔTm of Mpro": 0.307},
      {"compound": "O=[N+]([O-])c1ccc2c(c1)S(=O)(=O)C=C2", "note": "[Stattic]", "thermal shift ΔTm of Mpro": -0.112},
      {"compound": "CC[C@H]1OC(=O)[C@H](C)[C@@H](O[C@H]2C[C@@](C)(OC)[C@@H](O)[C@H](C)O2)[C@H](C)[C@@H](O[C@@H]2O[C@H](C)C[C@H](N(C)C)[C@H]2O)[C@](C)(OC)C[C@@H](C)C(=O)[C@H](C)[C@@H](O)[C@]1(C)O", "note": "[Clarithromycin]", "thermal shift ΔTm of Mpro": -0.0539},
      {"compound": "NC(=O)Cc1cccc(C(=O)c2ccccc2)c1N", "note": "[Nepafenac]", "thermal shift ΔTm of Mpro": 0.124},
      {"compound": "C[C@H]1COC2=C1C(=O)C(=O)c1c2ccc2c1CCCC2(C)C", "note": "[Cryptotanshinone]", "thermal shift ΔTm of Mpro": 0.0798},
      {"compound": "CN(C)CC[C@H](CSc1ccccc1)Nc1ccc(S(=O)(=O)NC(=O)c2ccc(N3CCN(Cc4ccccc4-c4ccc(Cl)cc4)CC3)cc2)cc1[N+](=O)[O-]", "thermal shift ΔTm of Mpro": 0.346},
      {"compound": "COc1ccc2c(c1OCc1ccccc1)C[C@@H](C(=O)O)N(C(=O)C(c1ccccc1)c1ccccc1)C2", "thermal shift ΔTm of Mpro": 0.256},
      {"compound": "CCCCC1=NC2(CCCC2)C(=O)N1Cc1ccc(-c2ccccc2-c2nnn[nH]2)cc1", "note": "[Irbesartan]", "thermal shift ΔTm of Mpro": 0.364},
      {"compound": "NCC(=O)Nc1ccc(-n2nc(C(F)(F)F)cc2-c2ccc3c(ccc4ccccc43)c2)cc1", "thermal shift ΔTm of Mpro": 0.537},
      {"compound": "NS(=O)(=O)c1cc2c(cc1Cl)N=CNS2(=O)=O", "note": "[Chlorothiazide]", "thermal shift ΔTm of Mpro": 0.123},
      {"compound": "COc1ccc(-c2cnc3c(-c4cccc5ncccc45)cnn3c2)cc1", "thermal shift ΔTm of Mpro": -0.171},
      {"compound": "O=c1c(O)c(-c2ccc(O)c(O)c2)oc2cc(O)ccc12", "note": "[Fisetin]", "thermal shift ΔTm of Mpro": -0.0715},
      {"compound": "O=C(COc1ccc(Cl)cc1)NC1CCC(NC(=O)COc2ccc(Cl)cc2)CC1", "note": "(stereo not given)", "thermal shift ΔTm of Mpro": 0.058},
      {"compound": "COc1cc2ncnc(Oc3cccc(NC(=O)Nc4cc(C(C)(C)C(F)(F)F)on4)c3)c2cc1OC", "thermal shift ΔTm of Mpro": 0.283},
      {"compound": "CNS(=O)(=O)Cc1ccc2[nH]cc(CCN(C)C)c2c1", "note": "[Sumatriptan Succinate]", "thermal shift ΔTm of Mpro": 0.318},
      {"compound": "O=C(CCCl)NCc1ccccc1", "note": "[Beclamide]", "thermal shift ΔTm of Mpro": 0.223},
      {"compound": "CN[C@H](CC(C)C)C(=O)N[C@H]1C(=O)N[C@@H](CC(N)=O)C(=O)N[C@H]2C(=O)N[C@H]3C(=O)N[C@H](C(=O)N[C@H](C(=O)O)c4cc(O)cc(O)c4-c4cc3ccc4O)[C@H](O)c3ccc(c(Cl)c3)Oc3cc2cc(c3O[C@@H]2O[C@H](CO)[C@@H](O)[C@H](O)[C@H]2O[C@H]2C[C@](C)(N)[C@H](O)[C@H](C)O2)Oc2ccc(cc2Cl)[C@H]1O", "note": "[Vancomycin hydrochloride]", "thermal shift ΔTm of Mpro": 0.38},
      {"compound": "NC(=O)c1ncn([C@@H]2O[C@H](CO)[C@@H](O)[C@H]2O)n1", "note": "[Ribavirin]", "thermal shift ΔTm of Mpro": 0.0582},
      {"compound": "CCOc1ccc2c(c1)C(C)=CC(C)(C)N2", "note": "[Ethoxyquin]", "thermal shift ΔTm of Mpro": 0.112},
      {"compound": "CCOC(=O)[C@H](CCc1ccccc1)N[C@@H](C)C(=O)N1[C@H](C(=O)O)C[C@@H]2CCC[C@@H]21", "note": "[Ramipril]", "thermal shift ΔTm of Mpro": 0.0507},
      {"compound": "O=C(NCc1ccncc1)C12CC3CC(C1)CC(c1ccc(Cl)cc1)(C3)C2", "thermal shift ΔTm of Mpro": -0.173},
      {"compound": "CNC(=O)c1ccc(-c2cnc3ncc(Cc4ccc5ncccc5c4)n3n2)cc1F", "note": "[Capmatinib 2HCl]", "thermal shift ΔTm of Mpro": -0.0159},
      {"compound": "CNC(=O)c1ccc(-c2cnc3ncc(Cc4ccc5ncccc5c4)n3n2)cc1F", "note": "[Capmatinib]", "thermal shift ΔTm of Mpro": 0.0195},
      {"compound": "Cc1ccc(S(=O)(=O)n2c(N)nc3ccccc32)cc1", "note": "[ML130 (Nodinitib-1)]", "thermal shift ΔTm of Mpro": -0.0272},
      {"compound": "CCN(Cc1ccccc1)C(=O)Cn1c(=O)n(C)c2cnc(-c3ccccc3)nc21", "note": "[Emapunil]", "thermal shift ΔTm of Mpro": -0.227},
      {"compound": "O=C(O)c1cc(=O)c2ccccc2o1", "note": "[Chromocarb]", "thermal shift ΔTm of Mpro": -0.0187}
    ]}
  ]
}
